Measured values published in US20210308213A1.
No constants are given. Whether binding was seen depends on the method and setting. In cells and extracts the contact can be indirect. Some binding calls cover weakened binding; strength is not graded here.

The chains behind the UniProt entries cited, without tags or fusion partners. Where a name states a change or a piece, a line headed by the entry shows the natural chain unless it says otherwise. Residues count along the entry.
UniProt P15941, residues 1110-1255: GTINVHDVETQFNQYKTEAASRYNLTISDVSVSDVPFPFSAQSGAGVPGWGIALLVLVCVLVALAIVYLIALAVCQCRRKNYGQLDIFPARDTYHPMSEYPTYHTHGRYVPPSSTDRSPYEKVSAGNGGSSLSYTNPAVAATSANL
UniProt Q9Y5B8: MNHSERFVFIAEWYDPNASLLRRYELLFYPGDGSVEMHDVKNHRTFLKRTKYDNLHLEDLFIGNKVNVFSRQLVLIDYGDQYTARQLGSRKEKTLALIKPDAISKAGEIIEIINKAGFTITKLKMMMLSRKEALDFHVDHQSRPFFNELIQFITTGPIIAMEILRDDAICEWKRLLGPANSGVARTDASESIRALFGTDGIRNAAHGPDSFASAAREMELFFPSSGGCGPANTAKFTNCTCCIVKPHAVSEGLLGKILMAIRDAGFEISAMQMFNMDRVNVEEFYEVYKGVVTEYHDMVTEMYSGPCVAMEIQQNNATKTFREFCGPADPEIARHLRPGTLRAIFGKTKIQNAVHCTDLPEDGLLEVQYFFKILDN

Columns and labels:
MUC1* (human) [1] = molecular target: MUC1* (human) (UniProt P15941); test: co-immunoprecipitation from T47D breast cancer cell extracts with Ab-5; Western blot with anti-NME7, re-probed with anti-PSMGFR; size compared with recombinant proteins
MUC1* (human) [2] = molecular target: MUC1* (human) (UniProt P15941); test: co-immunoprecipitation from iPS7 and HES3 stem cell extracts with Ab-5; Western blot with B9, re-probed with anti-PSMGFR
MUC1* (human) [3] = molecular target: MUC1* (human) (UniProt P15941); test: co-immunoprecipitation from T47D breast cancer cell extracts with Ab-5 (anti-MUC1 cytoplasmic tail); Western blot with anti-NME7, re-probed with anti-PSMGFR

Measured: binding

NME7-X1 (from UniProt Q9Y5B8 125-376) (ligand)
binds: all assays above
